The list shows a part of the results.
Compound: COc1ccc(Cn2ccc3cc(C)c(C(=O)NO)cc32)cc1
Assay: dose-dependent thermal stabilisation call (2D-TPP, DLPTP, 10% FDR) (binary (1 = stabilised)); higher = stabilised by the compound
Settings: system: HL-60 intact cells; concentration range 0.04-10 µM
Experimental: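 2D thermal proteome profiling in intact HL-60 cells treated with BRD-3811 (0, 0.04, 0.29, 2, 10 uM) for 90 min at 37 C, then heated 3 min at one of 12 temperatures (42-63.9 C). Soluble protein was quantified by TMT10 MS. The value is the DLPTP call of the paper: dose-dependent thermal stabilisation over all temperatures at 10% FDR (F-test of a dose-response against a flat model); one experiment, one call per tested protein.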

Amino acid sequences for entries named in this document (tags omitted). A change or cut given only in a name is not applied to a line headed by its entry.
UniProt Q8NB16: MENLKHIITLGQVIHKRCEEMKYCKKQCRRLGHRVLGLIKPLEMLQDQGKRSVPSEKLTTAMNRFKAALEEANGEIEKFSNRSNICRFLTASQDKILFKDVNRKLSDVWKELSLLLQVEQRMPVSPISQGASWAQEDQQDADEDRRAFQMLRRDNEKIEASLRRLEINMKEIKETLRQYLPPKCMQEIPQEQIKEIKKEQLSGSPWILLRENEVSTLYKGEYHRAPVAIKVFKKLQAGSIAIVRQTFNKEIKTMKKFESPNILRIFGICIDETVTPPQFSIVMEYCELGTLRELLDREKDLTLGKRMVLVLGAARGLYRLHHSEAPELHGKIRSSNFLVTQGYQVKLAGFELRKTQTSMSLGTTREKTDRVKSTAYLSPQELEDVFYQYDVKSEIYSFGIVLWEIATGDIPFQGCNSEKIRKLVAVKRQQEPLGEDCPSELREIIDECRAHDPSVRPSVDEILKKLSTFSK
UniProt Q03111: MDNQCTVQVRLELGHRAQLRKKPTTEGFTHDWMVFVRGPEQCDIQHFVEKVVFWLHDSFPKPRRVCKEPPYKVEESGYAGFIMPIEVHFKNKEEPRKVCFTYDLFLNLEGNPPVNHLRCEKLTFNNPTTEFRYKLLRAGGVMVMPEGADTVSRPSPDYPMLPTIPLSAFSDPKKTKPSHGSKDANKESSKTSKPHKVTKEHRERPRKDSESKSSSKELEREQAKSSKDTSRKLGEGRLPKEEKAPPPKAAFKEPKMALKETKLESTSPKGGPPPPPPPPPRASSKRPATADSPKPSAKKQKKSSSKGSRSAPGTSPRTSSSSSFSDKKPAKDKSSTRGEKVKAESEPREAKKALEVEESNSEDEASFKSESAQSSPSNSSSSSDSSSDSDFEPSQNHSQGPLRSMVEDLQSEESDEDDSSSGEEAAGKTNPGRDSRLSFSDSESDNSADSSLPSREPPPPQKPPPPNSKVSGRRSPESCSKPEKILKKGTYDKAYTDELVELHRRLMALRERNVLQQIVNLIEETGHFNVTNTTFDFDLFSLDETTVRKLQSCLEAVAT
UniProt Q8N108: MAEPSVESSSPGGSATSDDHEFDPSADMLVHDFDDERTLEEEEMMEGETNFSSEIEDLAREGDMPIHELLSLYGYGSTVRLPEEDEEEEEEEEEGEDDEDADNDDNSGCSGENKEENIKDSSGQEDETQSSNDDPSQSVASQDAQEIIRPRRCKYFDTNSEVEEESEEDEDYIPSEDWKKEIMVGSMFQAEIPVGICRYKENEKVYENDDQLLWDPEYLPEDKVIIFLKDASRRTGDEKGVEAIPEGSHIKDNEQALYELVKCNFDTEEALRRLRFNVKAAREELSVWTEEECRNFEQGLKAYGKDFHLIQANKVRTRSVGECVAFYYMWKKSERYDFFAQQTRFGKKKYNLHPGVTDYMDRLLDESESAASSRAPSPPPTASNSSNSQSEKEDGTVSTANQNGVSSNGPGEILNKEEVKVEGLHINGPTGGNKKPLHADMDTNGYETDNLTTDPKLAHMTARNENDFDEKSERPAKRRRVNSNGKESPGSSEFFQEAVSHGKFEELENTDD
UniProt Q10469: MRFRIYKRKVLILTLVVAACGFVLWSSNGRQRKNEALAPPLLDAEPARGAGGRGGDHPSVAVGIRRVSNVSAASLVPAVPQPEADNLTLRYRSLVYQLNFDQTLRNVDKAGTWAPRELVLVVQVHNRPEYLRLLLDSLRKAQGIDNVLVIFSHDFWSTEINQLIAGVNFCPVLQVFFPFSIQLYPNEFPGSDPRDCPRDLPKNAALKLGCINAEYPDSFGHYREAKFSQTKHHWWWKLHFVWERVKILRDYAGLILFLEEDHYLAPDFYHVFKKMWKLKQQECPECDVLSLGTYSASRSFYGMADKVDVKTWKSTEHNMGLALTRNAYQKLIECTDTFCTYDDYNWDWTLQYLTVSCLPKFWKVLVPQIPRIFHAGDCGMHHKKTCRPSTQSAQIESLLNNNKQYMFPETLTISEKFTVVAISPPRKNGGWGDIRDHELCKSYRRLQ
UniProt P02795: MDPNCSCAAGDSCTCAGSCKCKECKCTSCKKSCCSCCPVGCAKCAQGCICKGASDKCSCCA
UniProt O95822: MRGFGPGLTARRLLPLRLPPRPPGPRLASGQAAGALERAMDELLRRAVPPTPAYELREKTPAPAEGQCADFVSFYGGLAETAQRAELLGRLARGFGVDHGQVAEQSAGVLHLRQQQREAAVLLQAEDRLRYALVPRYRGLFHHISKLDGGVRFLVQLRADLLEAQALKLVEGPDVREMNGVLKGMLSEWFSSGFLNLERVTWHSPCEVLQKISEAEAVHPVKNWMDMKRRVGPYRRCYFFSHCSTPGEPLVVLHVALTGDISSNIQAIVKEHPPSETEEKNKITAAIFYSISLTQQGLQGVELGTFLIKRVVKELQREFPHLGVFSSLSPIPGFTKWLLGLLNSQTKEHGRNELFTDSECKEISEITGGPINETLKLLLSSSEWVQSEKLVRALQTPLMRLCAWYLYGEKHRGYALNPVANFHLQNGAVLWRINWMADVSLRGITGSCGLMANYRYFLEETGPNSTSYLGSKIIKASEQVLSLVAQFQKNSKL
UniProt Q8IVH4: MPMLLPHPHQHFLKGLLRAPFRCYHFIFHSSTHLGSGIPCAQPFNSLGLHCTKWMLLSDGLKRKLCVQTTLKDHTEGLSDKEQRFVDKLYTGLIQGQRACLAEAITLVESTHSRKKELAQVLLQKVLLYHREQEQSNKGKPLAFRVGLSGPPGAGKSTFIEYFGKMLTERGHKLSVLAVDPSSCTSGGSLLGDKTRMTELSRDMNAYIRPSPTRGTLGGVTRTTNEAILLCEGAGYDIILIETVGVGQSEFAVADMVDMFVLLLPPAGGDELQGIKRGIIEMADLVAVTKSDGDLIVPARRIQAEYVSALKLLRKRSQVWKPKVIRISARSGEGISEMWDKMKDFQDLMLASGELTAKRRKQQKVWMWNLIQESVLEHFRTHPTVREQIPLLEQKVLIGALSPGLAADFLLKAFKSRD
UniProt O75352: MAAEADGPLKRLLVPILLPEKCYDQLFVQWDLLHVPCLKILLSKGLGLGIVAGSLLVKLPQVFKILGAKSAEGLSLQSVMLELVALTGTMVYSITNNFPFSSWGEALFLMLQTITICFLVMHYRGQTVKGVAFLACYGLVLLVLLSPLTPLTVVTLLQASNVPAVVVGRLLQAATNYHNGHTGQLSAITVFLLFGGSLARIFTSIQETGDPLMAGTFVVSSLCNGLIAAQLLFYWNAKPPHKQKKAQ
UniProt Q9NRN9: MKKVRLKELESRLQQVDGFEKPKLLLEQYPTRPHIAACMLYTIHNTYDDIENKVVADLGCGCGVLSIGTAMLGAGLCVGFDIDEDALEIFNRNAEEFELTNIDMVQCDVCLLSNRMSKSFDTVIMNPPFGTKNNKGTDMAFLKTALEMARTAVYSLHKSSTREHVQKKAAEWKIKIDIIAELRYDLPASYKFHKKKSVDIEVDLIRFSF
UniProt Q9H944: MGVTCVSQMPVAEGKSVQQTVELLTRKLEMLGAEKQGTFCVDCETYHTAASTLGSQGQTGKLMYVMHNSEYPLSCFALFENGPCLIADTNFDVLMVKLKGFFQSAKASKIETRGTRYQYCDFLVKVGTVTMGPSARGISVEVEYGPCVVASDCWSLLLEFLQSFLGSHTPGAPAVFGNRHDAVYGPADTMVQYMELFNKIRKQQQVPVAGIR
UniProt Q9H1A3: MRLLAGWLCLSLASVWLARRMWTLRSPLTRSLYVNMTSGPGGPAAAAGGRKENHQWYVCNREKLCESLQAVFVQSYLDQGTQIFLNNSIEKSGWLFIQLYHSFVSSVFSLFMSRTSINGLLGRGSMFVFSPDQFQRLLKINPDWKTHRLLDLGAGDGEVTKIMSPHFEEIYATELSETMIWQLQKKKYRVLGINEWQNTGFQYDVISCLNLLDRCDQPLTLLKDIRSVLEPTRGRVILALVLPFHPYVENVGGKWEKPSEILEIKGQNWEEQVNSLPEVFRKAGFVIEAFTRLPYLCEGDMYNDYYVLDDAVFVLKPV
UniProt Q9UQ53: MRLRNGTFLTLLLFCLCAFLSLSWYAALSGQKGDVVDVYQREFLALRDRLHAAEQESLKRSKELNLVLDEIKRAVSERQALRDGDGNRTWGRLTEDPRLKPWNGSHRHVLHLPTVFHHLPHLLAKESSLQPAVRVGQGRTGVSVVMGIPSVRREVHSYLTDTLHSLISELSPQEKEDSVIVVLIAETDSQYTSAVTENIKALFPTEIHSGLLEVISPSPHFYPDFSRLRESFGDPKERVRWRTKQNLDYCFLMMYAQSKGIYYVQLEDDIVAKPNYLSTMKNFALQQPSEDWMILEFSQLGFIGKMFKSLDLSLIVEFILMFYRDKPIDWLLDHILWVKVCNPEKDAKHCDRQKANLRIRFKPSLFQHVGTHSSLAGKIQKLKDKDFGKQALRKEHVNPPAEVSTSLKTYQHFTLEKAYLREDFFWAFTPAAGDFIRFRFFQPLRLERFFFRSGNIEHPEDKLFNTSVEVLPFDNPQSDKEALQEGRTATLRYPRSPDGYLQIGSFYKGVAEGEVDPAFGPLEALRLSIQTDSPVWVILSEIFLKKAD
UniProt Q8N4V1: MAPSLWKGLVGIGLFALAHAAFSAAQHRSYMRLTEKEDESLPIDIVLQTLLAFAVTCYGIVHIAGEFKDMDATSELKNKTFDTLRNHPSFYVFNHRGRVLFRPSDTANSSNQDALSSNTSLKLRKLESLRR
UniProt Q9UBP6: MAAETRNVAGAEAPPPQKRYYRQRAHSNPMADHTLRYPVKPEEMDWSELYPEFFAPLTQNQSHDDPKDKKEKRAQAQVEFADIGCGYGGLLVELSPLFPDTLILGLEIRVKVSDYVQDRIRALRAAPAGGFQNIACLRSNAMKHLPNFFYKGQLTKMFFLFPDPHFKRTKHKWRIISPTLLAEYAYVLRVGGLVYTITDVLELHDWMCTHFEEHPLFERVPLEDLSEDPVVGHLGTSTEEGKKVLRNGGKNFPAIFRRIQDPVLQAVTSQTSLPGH
UniProt Q71SY5: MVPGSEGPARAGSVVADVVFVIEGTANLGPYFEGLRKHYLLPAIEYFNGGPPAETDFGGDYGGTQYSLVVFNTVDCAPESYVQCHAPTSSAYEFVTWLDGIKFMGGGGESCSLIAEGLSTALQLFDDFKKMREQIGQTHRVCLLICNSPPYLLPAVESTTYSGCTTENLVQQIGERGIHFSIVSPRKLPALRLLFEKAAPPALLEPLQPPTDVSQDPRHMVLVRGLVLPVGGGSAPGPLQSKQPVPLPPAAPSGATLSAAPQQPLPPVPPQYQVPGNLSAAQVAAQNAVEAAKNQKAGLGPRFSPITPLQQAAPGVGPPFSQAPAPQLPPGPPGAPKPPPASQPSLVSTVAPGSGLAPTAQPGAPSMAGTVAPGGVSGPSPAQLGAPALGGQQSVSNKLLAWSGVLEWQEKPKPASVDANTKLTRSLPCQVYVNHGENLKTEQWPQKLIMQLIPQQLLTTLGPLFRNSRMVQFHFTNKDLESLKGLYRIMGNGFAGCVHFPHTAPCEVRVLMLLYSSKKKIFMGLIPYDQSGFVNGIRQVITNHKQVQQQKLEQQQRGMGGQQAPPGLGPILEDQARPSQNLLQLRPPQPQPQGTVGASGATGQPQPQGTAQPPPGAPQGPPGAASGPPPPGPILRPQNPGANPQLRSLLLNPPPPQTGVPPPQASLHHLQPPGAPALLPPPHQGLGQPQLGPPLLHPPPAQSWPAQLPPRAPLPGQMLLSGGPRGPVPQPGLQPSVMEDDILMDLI
UniProt Q969V6: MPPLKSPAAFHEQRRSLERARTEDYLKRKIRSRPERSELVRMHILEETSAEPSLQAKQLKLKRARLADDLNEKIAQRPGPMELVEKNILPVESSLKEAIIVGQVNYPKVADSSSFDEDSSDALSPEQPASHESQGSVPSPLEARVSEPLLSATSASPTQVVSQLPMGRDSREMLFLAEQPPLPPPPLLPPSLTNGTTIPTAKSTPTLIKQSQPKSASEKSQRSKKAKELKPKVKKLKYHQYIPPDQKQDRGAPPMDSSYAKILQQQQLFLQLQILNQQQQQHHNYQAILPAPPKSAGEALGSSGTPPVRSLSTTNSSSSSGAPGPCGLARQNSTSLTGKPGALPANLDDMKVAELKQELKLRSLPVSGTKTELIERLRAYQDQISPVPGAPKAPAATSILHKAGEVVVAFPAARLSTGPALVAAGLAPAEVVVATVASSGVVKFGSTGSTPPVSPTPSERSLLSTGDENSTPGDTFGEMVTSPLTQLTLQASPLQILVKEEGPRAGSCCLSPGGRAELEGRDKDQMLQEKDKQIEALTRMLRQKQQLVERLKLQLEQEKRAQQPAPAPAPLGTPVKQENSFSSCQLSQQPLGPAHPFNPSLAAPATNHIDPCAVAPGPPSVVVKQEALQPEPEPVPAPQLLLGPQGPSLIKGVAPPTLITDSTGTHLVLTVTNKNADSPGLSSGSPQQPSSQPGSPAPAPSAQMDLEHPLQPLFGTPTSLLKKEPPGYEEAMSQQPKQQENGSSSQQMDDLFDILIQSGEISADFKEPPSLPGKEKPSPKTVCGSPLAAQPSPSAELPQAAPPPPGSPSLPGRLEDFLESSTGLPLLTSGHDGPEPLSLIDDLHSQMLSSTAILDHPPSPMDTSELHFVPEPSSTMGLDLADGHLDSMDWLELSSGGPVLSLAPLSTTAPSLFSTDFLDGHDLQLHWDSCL

| Target | dose-dependent thermal stabilisation call |
| --- | --- |
| METTL7A (UniProt Q9H8H3) | inactive: 0 |
| MRPS26 (UniProt Q9BYN8) | inactive: 0 |
| MLKL (UniProt Q8NB16) | inactive: 0 |
| MTERFD1 (UniProt Q96E29) | inactive: 0 |
| MTR (UniProt Q99707) | inactive: 0 |
| MLLT1 (UniProt Q03111) | inactive: 0 |
| MEMO1 (UniProt Q9Y316) | inactive: 0 |
| MIER1 (UniProt Q8N108) | inactive: 0 |
| MGAT2 (UniProt Q10469) | inactive: 0 |
| MRPL3 (UniProt P09001) | inactive: 0 |
| MRPS17 (UniProt Q9Y2R5) | inactive: 0 |
| MEN1 (UniProt O00255) | inactive: 0 |
| MT2A (UniProt P02795) | inactive: 0 |
| MLYCD (UniProt O95822) | inactive: 0 |
| MFN1 (UniProt Q8IWA4) | inactive: 0 |
| MMAA (UniProt Q8IVH4) | inactive: 0 |
| MTAP (UniProt Q13126) | inactive: 0 |
| MPDU1 (UniProt O75352) | inactive: 0 |

| Target | dose-dependent thermal stabilisation call |
| --- | --- |
| METTL5 (UniProt Q9NRN9) | inactive: 0 |
| MED20 (UniProt Q9H944) | inactive: 0 |
| METTL9 (UniProt Q9H1A3) | inactive: 0 |
| MGAT4B (UniProt Q9UQ53) | inactive: 0 |
| MMGT1 (UniProt Q8N4V1) | inactive: 0 |
| MRPL24 (UniProt Q96A35) | inactive: 0 |
| METTL1 (UniProt Q9UBP6) | inactive: 0 |
| MSRA (UniProt Q9UJ68) | inactive: 0 |
| MECP2 (UniProt P51608) | inactive: 0 |
| MYO1F (UniProt O00160) | inactive: 0 |
| MRPS22 (UniProt P82650) | inactive: 0 |
| MIA3 (UniProt Q5JRA6) | inactive: 0 |
| MED25 (UniProt Q71SY5) | inactive: 0 |
| MON1B (UniProt Q7L1V2) | inactive: 0 |
| MGC3207 | inactive: 0 |
| MRPS15 (UniProt P82914) | inactive: 0 |
| MRPL13 (UniProt Q9BYD1) | inactive: 0 |
| MKL1 (UniProt Q969V6) | inactive: 0 |

A portion from further up:

| Target | dose-dependent thermal stabilisation call |
| --- | --- |
| MRPS15 (UniProt P82914) | inactive: 0 |
| MRPL13 (UniProt Q9BYD1) | inactive: 0 |
